Test results as given in patent US12729225B2, “Non-canonical SWI/SNF complex and uses thereof” (Dana-Farber Cancer Institute, Inc., priority 2018, dated 2026).

Tested on: mSWI/SNF complexes
Assay: mSWI/SNF complex purification with HA-tagged baits and mass spectrometry (peptide counts)
Design: species or system human
Conditions: 293_HA-BRD7 bait purification, mass spectrometry; for Total: total peptides per co-purified protein; for Unique: unique peptides per co-purified protein

| Molecule | Total | Unique |
| --- | --- | --- |
| WDR18 (protein, UniProt Q9BV38 1-432, looked up) WD repeat-containing protein …: MAAPMEVAVCTDSAAPMWSCIVWELHSGANLLTYRGGQAGPRGLALLNGEYLLAAQLGKNYISAWELQRKDQLQQKIMCPGPVTCLTASPNGLYVLAGVAESIHLWEVSTGNLLVILSRHYQDVSCLQFTGDSSHFISGGKDCLVLVWSLCSVLQADPSRIPAPRHVWSHHALPITDLHCGFGGPLARVATSSLDQTVKLWEVSSGELLLSVLFDVSIMAVTMDLAEHHMFCGGSEGSIFQVDLFTWPGQRERSFHPEQDAGKVFKGHRNQVTCLSVSTDGSVLLSGSHDETVRLWDVQSKQCIRTVALKGPVTNAAILLAPVSMLSSDFRPSLPLPHFNKHLLGAEHGDEPRHGGLTLRLGLHQQGSEPSYLDRTEQLQAVLCSTMEKSVLGGQDQLRVRVTELEDEVRNLRKINRDLFDFSTRFITRPAK | 2 | 2 |
| CSTF2 (protein, UniProt P33240 1-577, looked up) Cleavage stimulation factor …: MAGLTVRDPAVDRSLRSVFVGNIPYEATEEQLKDIFSEVGPVVSFRLVYDRETGKPKGYGFCEYQDQETALSAMRNLNGREFSGRALRVDNAASEKNKEELKSLGTGAPVIESPYGETISPEDAPESISKAVASLPPEQMFELMKQMKLCVQNSPQEARNMLLQNPQLAYALLQAQVVMRIVDPEIALKILHRQTNIPTLIAGNPQPVHGAGPGSGSNVSMNQQNPQAPQAQSLGGMHVNGAPPLMQASMQGGVPAPGQMPAAVTGPGPGSLAPGGGMQAQVGMPGSGPVSMERGQVPMQDPRAAMQRGSLPANVPTPRGLLGDAPNDPRGGTLLSVTGEVEPRGYLGPPHQGPPMHHVPGHESRGPPPHELRGGPLPEPRPLMAEPRGPMLDQRGPPLDGRGGRDPRGIDARGMEARAMEARGLDARGLEARAMEARAMEARAMEARAMEARAMEVRGMEARGMDTRGPVPGPRGPIPSGMQGPSPINMGAVVPQGSRQVPVMQGTGMQGASIQGGSQPGGFSPGQNQVTPQDHEKAALIMQVLQLTADQIAMLPPEQRQSILILKEQIQKSTGAP | 2 | 2 |
| SLC25A6 (protein, UniProt P12236 1-298, looked up) ADP/ATP translocase 3: MTEQAISFAKDFLAGGIAAAISKTAVAPIERVKLLLQVQHASKQIAADKQYKGIVDCIVRIPKEQGVLSFWRGNLANVIRYFPTQALNFAFKDKYKQIFLGGVDKHTQFWRYFAGNLASGGAAGATSLCFVYPLDFARTRLAADVGKSGTEREFRGLGDCLVKITKSDGIRGLYQGFSVSVQGIIIYRAAYFGVYDTAKGMLPDPKNTHIVVSWMIAQTVTAVAGVVSYPFDTVRRRMMMQSGRKGADIMYTGTVDCWRKIFRDEGGKAFFKGAWSNVLRGMGGAFVLVLYDELKKVI | 2 | 1 |
| MRE11A (protein, UniProt P49959 2-708, looked up) Double-strand break repair …: STADALDDENTFKILVATDIHLGFMEKDAVRGNDTFVTLDEILRLAQENEVDFILLGGDLFHENKPSRKTLHTCLELLRKYCMGDRPVQFEILSDQSVNFGFSKFPWVNYQDGNLNISIPVFSIHGNHDDPTGADALCALDILSCAGFVNHFGRSMSVEKIDISPVLLQKGSTKIALYGLGSIPDERLYRMFVNKKVTMLRPKEDENSWFNLFVIHQNRSKHGSTNFIPEQFLDDFIDLVIWGHEHECKIAPTKNEQQLFYISQPGSSVVTSLSPGEAVKKHVGLLRIKGRKMNMHKIPLHTVRQFFMEDIVLANHPDIFNPDNPKVTQAIQSFCLEKIEEMLENAERERLGNSHQPEKPLVRLRVDYSGGFEPFSVLRFSQKFVDRVANPKDIIHFFRHREQKEKTGEEINFGKLITKPSEGTTLRVEDLVKQYFQTAEKNVQLSLLTERGMGEAVQEFVDKEEKDAIEELVKYQLEKTQRFLKERHIDALEDKIDEEVRRFRETRQKNTNEEDDEVREAMTRARALRSQSEESASAFSADDLMSIDLAEQMANDSDDSISAATNKGRGRGRGRRGGRGQNSASRGGSQRGRADTGLETSTRSRNSKTAVSASRNMSIIDAFKSTRQQPSRNVTTKNYSEVIEVDESDVEEDIFPTTSKTDQRWSSTSSSKIMSQSQVSKGVDFESSEDDDDDPFMNTSSLRRNRR | 2 | 1 |
